{
  "sequences": {"note": "Chains of the proteins cited; added tags and fusions are not shown. Residues count along the entry.", "UniProt P35916, residues 25-1363": "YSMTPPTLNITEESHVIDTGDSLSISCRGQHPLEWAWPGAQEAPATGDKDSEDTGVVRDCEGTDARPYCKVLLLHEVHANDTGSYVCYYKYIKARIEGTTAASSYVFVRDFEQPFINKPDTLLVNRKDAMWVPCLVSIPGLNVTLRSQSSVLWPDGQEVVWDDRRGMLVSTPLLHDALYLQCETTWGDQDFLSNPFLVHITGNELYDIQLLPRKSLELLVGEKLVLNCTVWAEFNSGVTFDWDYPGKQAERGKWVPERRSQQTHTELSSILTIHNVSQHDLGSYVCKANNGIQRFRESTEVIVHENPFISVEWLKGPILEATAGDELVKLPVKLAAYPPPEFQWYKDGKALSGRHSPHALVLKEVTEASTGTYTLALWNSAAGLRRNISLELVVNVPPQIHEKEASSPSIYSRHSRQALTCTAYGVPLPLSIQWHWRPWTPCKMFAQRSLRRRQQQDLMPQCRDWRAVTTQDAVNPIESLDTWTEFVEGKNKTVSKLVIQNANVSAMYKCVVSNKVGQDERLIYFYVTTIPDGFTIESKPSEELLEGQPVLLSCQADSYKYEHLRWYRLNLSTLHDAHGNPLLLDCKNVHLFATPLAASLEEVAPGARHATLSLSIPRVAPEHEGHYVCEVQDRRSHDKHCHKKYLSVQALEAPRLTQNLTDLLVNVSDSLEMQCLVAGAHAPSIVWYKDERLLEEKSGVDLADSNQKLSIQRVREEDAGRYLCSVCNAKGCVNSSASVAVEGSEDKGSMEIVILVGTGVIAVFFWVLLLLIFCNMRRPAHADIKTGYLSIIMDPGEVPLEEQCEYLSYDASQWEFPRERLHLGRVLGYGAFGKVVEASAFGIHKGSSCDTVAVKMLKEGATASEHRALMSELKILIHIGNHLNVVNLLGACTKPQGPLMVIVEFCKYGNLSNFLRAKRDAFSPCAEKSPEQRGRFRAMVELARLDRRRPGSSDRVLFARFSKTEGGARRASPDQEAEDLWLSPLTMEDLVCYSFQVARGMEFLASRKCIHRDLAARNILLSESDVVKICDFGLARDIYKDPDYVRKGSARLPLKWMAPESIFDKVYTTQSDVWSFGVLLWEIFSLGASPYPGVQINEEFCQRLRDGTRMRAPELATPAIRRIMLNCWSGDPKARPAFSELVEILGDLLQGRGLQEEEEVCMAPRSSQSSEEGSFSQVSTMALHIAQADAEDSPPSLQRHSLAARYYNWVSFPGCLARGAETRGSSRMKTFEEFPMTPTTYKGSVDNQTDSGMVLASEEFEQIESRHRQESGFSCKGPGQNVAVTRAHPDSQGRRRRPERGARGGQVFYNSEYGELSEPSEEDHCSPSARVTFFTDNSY", "UniProt P35968, residues 20-1356": "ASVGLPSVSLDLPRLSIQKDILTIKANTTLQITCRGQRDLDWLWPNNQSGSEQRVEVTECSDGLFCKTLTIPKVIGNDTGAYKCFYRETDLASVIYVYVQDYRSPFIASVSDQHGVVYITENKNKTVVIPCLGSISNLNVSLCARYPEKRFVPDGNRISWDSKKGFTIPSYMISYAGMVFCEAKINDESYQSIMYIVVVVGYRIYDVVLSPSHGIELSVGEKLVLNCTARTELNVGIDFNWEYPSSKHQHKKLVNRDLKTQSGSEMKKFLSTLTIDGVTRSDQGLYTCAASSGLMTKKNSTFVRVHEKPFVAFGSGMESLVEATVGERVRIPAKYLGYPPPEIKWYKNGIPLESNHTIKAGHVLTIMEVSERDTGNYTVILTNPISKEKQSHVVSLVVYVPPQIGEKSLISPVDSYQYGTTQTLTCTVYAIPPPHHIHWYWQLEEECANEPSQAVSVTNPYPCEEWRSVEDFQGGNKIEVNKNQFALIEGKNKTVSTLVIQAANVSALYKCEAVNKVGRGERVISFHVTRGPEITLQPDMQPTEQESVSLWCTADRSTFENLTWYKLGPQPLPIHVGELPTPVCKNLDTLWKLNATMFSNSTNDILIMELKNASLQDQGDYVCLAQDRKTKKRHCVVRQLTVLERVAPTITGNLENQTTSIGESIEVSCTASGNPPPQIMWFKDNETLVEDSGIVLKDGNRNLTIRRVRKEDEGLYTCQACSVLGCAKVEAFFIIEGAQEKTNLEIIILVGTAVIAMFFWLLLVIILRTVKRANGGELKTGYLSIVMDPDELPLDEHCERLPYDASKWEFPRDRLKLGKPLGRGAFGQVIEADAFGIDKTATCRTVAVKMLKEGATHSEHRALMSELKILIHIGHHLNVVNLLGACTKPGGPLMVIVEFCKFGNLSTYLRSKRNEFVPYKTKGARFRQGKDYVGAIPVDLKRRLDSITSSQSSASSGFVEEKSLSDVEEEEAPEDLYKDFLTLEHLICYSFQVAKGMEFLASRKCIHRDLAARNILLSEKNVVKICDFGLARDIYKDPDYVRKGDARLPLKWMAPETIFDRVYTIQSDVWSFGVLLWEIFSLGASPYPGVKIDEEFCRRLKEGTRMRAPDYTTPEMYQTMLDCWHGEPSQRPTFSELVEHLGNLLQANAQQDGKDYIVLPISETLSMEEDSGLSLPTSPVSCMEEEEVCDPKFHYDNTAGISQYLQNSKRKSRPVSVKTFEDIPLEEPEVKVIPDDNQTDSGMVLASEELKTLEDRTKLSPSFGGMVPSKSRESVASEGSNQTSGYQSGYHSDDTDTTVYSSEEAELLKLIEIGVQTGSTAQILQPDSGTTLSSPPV"},
  "source": "paper PMC4122147",
  "target": "VEGF receptor 3 (human (endogenous in L-LECs)) (UniProt P35916)",
  "test": "co-IP; VEGFR-3 immunoprecipitated from RIPA lysates of L-LECs, with and without Slit2N incubation; Western blot for VEGFR-2 and alpha 5 integrin",
  "note": "Results are given in words; binding and its absence hold for the method and conditions named. Binding seen in cells or lysates may run through a third protein. Some entries that bind do so weakly or less than the wild type.",
  "data": [
    {"substance": "VEGF receptor 2 (from UniProt P35968 20-1356)", "values": [
      {"measurement": "binding", "value": "binds weakly"}
    ]}
  ]
}
